# Values from PubChem BioAssay AID602196 (INSERM, 2012)
# Screen: 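Knock-downs that protect lung cancer cells from cisplatin or sensitise them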
# Cells: human A549 lung cancer cells
# Reagents: siRNA pair against human genes
# Timing: 48 h transfection before cisplatin; time from cisplatin to read-out not stated
# Treatment: cisplatin at a dose killing half of control-siRNA cells; exact dose and duration not given
# Measured: 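Shift in cisplatin death relative to control siRNA, from -50 (all cells die) to +50 (no cells die); siRNAs harmful on their own scored 0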
# Direction: two-siRNA summed score (-2 to +2): higher = both siRNAs protect from cisplatin killing; -2 means both sensitise; mean protection from cisplatin (shift in death) and protection from cisplatin (shift in death), siRNA C and protection from cisplatin (shift in death), siRNA D: higher = protection from cisplatin killing
# Active means: 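Each siRNA scores 0 if harmful alone by LDH or WST-1, otherwise +1 if it reduces and -1 if it increases cisplatin killing; a gene is active when both siRNAs agree (sum +2 or -2)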
# Calls: active = both siRNAs shift cisplatin killing the same way; inactive = no consistent shift, or siRNA harmful alone
# Here is an unselected part of about 23,000 deposited reagents. 455 of them (2%) count as active. 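Active includes both protection and sensitisation; some change values fall well beyond the stated -50 to +50 range.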 Entries without a mark were called inactive. Reagents against one gene are numbered here. Reagent sequences are not shown. The record does not give: the amount of reagent.
Gene,reagent,two-siRNA summed score (-2 to +2),mean protection from cisplatin (shift in death) (%),"protection from cisplatin (shift in death), siRNA C (%)","protection from cisplatin (shift in death), siRNA D (%)"
SLC25A6 (GeneID 293),1,0,-0.9,-6.5,4.8
CDCA2 (GeneID 157313),1,0,7.7,4.3,11.2
R3HCC1L (GeneID 27291),1,0,0.5,4.8,-3.9
SLC52A1 (GeneID 55065),1,2 (active),23.9,25.6,22.3
SNTB1 (GeneID 6641),1,0,12.1,10.4,13.9
SCGB2A2 (GeneID 4250),1,1,20,20.1,19.8
LOC388720,1,1,19.9,17,22.8
SNX33 (GeneID 257364),1,0,-0.8,-4,2.4
LOC387705,1,2 (active),17.8,14.2,21.3
TDG (GeneID 6996),1,0,5.6,5,6.3
LOC440930,1,0,11.3,20,2.6
ANGPTL6 (GeneID 83854),1,0,0,0.5,-0.6
HEPHL1 (GeneID 341208),1,0,7.9,16.8,-1.1
NEU1 (GeneID 4758),1,0,3.1,6.1,0
PRMT2IP (GeneID 56905),1,0,-3.2,-2.6,-3.8
CCDC18 (GeneID 343099),1,1,7.2,2,12.3
HIGD2A (GeneID 192286),1,0,7.1,8.7,5.5
KMT2C (GeneID 58508),1,0,9.8,12.4,7.1
SNAPC2 (GeneID 6618),1,0,0.3,-4.9,5.4
SLC35A5 (GeneID 55032),1,0,0.3,2.8,-2.1
KCTD20 (GeneID 222658),1,-1,-15.3,-6.9,-23.7
PDXK (GeneID 8566),1,1,27.2,53.1,1.2
PDXK (GeneID 8566),2,2 (active),28,28.3,27.8
RAN (GeneID 5901),1,0,-10.2,-6.2,-14.2
LOC442226,1,0,4,2,5.9
TIPE2 (GeneID 79626),1,0,5.9,11.4,0.4
XKRY (GeneID 9082),1,0,1.9,-2.5,6.2
XCL2 (GeneID 6846),1,0,5.4,7,3.8
CFAP20DC (GeneID 200844),1,0,-6.4,-8,-4.8
TEX26 (GeneID 122046),1,0,3.3,-6.7,13.3
TGM2 (GeneID 7052),1,-1,-6.8,-14.4,0.8
LINC01996 (GeneID 400568),1,1,18.2,17.1,19.4
DNAH11 (GeneID 8701),1,1,0.1,15.7,-15.5
DPYS (GeneID 1807),1,0,-1.1,4.7,-6.9
BPIFB9P (GeneID 402016),1,0,2.1,2.3,1.9
NUDC (GeneID 10726),1,-1,-3.3,-8.7,2.2
PMCH (GeneID 5367),1,0,-7.7,-11.8,-3.6
CREBZF (GeneID 58487),1,0,3.3,1.4,5.3
CNEP1R1 (GeneID 255919),1,1,17.2,15.3,19.1

Laid out differently: results already given.
{"Gene":"SLC35A5 (GeneID 55032)","reagent":1,"two-siRNA summed score (-2 to +2)":0,"mean protection from cisplatin (shift in death) (%)":0.3,"protection from cisplatin (shift in death), siRNA C (%)":2.8,"protection from cisplatin (shift in death), siRNA D (%)":-2.1}
{"Gene":"KCTD20 (GeneID 222658)","reagent":1,"two-siRNA summed score (-2 to +2)":-1,"mean protection from cisplatin (shift in death) (%)":-15.3,"protection from cisplatin (shift in death), siRNA C (%)":-6.9,"protection from cisplatin (shift in death), siRNA D (%)":-23.7}
{"Gene":"PDXK (GeneID 8566)","reagent":1,"two-siRNA summed score (-2 to +2)":1,"mean protection from cisplatin (shift in death) (%)":27.2,"protection from cisplatin (shift in death), siRNA C (%)":53.1,"protection from cisplatin (shift in death), siRNA D (%)":1.2}
{"Gene":"PDXK (GeneID 8566)","reagent":2,"two-siRNA summed score (-2 to +2)":"2 (active)","mean protection from cisplatin (shift in death) (%)":28,"protection from cisplatin (shift in death), siRNA C (%)":28.3,"protection from cisplatin (shift in death), siRNA D (%)":27.8}
{"Gene":"RAN (GeneID 5901)","reagent":1,"two-siRNA summed score (-2 to +2)":0,"mean protection from cisplatin (shift in death) (%)":-10.2,"protection from cisplatin (shift in death), siRNA C (%)":-6.2,"protection from cisplatin (shift in death), siRNA D (%)":-14.2}
{"Gene":"LOC442226","reagent":1,"two-siRNA summed score (-2 to +2)":0,"mean protection from cisplatin (shift in death) (%)":4,"protection from cisplatin (shift in death), siRNA C (%)":2,"protection from cisplatin (shift in death), siRNA D (%)":5.9}
